These are yes or no findings as the source states them, for the method shown. Binding seen in cells or lysates may run through a third protein. Some entries that bind do so weakly or less than the wild type. For part of these data: Tags and fused reporters may be left off the sequences shown.
Assays:
[1] = target: T1, Venus-N:AtHB23 (Arabidopsis thaliana) (UniProt Q8LFD3); test: split reporter
T1 sequence: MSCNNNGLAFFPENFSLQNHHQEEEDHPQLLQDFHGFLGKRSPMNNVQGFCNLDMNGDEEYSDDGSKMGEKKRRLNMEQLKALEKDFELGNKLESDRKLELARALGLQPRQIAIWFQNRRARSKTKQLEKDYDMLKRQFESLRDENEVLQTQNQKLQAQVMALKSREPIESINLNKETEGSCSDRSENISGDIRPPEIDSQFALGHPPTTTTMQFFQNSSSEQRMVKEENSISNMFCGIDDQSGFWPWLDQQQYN

[2] = target: T2, Venus-C:AtHB23 (Arabidopsis thaliana) (UniProt Q8LFD3); test: split reporter
T2 sequence: T1 sequence

[3] = target: T3, Myc-AtHB23 (Arabidopsis thaliana) (UniProt Q8LFD3); test: co-IP
T3 sequence: T1 sequence

B1: Venus-C:AtPHL1 (protein, UniProt Q8GUN5 1-413)
chain: MTLANDFGYSTAMSSSYSALHTSVEDRYHKLPNSFWVSSGQELMNNPVPCQSVSGGNSGGYLFPSSSGYCNVSAVLPHGRNLQNQPPVSTVPRDRLAMQDCPLIAQSSLINHHPQEFIDPLHEFFDFSDHVPVQNLQAESSGVRVDSSVELHKKSEWQDWADQLISVDDGSEPNWSELLGDSSSHNPNSEIPTPFLDVPRLDITANQQQQMVSSEDQLSGRNSSSSVATSKQRMRWTPELHEAFVEAVNQLGGSERATPKAVLKLLNNPGLTIYHVKSHLQKYRTARYKPETSEVTGEPQEKKMTSIEDIKSLDMKTSVEITQALRLQMEVQKRLHEQLEIQRSLQLQIEKQGRYLQMMFEKQQKIQDNKSSSSEASPKQCNGSFAEVEVGLETLTGDQNESASASRKRVRED
- binding [1]: binds

B2: Venus-N:PHL1 (protein, UniProt Q8GUN5 1-413)
chain: B1 chain
- binding [2]: binds

B3: HA-AtPHL1 (protein, UniProt Q8GUN5 1-413)
chain: B1 chain
- binding [3]: binds

From article doi:10.1101/2022.12.18.520920
